{"sequences": {"note": "Sequences of proteins named here, by UniProt entry; tags and fusion partners are left off. Residues count along the entry.", "UniProt P29317, residues 24-976": "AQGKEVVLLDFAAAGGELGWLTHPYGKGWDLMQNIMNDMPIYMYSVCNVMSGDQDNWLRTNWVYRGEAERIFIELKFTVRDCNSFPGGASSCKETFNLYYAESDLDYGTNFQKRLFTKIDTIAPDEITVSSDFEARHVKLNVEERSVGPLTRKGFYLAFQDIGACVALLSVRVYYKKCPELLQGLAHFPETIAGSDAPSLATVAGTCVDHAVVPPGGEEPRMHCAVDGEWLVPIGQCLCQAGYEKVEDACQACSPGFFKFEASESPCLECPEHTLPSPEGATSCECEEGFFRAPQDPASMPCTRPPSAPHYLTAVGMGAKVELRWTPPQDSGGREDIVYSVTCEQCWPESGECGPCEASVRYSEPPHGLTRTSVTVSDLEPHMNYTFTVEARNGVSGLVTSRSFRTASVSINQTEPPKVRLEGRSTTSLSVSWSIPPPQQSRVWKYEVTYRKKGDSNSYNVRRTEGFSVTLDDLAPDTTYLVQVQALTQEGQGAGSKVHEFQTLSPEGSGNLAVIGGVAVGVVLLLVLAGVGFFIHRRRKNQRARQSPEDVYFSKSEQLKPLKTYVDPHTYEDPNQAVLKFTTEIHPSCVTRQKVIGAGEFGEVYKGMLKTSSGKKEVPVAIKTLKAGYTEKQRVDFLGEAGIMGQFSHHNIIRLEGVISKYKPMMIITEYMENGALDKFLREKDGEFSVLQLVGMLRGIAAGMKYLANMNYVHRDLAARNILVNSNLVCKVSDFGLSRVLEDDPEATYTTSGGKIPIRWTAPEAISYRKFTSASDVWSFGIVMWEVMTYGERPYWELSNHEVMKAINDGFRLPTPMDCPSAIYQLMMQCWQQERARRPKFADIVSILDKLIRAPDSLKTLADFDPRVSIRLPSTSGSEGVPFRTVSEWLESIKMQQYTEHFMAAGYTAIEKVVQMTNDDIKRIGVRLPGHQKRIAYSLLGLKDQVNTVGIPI"}, "source": "paper PMC5589800", "experiment_in_all_cases": "co-IP; Flag M2 magnetic beads from HeLa transiently transfected with Flag-SOCS2 constructs; 1 mM pervanadate for 30 min; endogenous EphA2 detected", "key": {"FLAG-mSOCS2 R73K (mouse)": {"molecular_target": "T1, FLAG-mSOCS2 R73K (mouse) (UniProt O35717)", "T1 sequence": "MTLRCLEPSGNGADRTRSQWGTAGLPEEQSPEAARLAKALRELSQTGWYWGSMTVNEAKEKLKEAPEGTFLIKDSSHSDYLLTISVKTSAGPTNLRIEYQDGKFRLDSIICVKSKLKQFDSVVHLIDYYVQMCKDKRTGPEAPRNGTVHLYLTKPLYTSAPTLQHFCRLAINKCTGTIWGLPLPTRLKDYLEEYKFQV"}, "FLAG-mSOCS2 ΔNT (mouse)": {"molecular_target": "T2, FLAG-mSOCS2 ΔNT (mouse) (UniProt O35717)", "T2 sequence": "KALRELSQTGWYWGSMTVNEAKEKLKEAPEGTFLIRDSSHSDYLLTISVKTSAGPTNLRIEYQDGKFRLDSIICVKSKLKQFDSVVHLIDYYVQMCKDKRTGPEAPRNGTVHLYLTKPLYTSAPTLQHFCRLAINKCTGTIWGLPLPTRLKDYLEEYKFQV"}, "FLAG-mSOCS2 ΔSB (mouse)": {"molecular_target": "T3, FLAG-mSOCS2 ΔSB (mouse) (UniProt O35717)", "T3 sequence": "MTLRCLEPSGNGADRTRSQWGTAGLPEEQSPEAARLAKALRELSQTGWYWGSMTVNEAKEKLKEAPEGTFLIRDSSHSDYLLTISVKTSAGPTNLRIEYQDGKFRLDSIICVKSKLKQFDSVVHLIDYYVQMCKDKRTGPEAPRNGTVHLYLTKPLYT"}}, "note": "Results are given in words; binding and its absence hold for the method and conditions named. Binding seen in cells or lysates may run through a third protein. Some results given as binding are weak or reduced against the parent protein; the word gives no strength. Tags and fused reporters may be left off the sequences shown."}
{"substance": "ephrin type-A receptor 2 (EphA2), endogenous (from UniProt P29317 24-976)", "values": [{"measurement": "binding", "setting": "FLAG-mSOCS2 R73K (mouse)", "value": "no binding"}, {"measurement": "binding", "setting": "FLAG-mSOCS2 ΔNT (mouse)", "value": "binds"}, {"measurement": "binding", "setting": "FLAG-mSOCS2 ΔSB (mouse)", "value": "binds"}]}
